One molecule from article PMC4741634 can be followed below.

Amino acid sequences for entries named in this document (tags omitted).
UniProt P10275: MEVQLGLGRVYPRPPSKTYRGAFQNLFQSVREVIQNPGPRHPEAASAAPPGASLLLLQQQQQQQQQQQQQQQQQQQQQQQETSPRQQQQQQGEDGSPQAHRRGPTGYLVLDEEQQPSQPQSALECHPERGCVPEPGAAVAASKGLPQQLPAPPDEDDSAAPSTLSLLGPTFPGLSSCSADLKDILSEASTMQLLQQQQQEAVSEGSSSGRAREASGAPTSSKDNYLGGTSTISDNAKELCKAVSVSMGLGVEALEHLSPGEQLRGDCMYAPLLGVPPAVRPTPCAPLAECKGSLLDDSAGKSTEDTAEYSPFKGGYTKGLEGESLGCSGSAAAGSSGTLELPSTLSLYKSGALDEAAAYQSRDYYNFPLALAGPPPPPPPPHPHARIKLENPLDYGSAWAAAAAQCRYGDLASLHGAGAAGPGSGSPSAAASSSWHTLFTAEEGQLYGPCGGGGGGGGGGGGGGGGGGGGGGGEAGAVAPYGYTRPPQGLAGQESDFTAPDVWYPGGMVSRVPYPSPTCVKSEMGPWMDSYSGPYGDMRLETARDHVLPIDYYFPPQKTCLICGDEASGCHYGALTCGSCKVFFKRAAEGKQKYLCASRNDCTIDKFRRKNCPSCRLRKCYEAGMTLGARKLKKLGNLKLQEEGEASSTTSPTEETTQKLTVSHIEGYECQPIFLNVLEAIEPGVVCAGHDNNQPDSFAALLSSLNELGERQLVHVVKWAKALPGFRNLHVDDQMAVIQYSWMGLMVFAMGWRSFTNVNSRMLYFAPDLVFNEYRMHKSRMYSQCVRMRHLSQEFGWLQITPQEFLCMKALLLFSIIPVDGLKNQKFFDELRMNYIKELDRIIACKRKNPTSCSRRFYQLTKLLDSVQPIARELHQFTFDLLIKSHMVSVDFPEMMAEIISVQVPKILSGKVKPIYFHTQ

For the assay, the target named is androgen receptor, ectopically overexpressed in AN3CA cells (UniProt P10275). The assay can be described thus: co-IP; AN3CA cells transfected with PWP1/GFP/Neo-AR or the empty vector; immunoprecipitation with anti-AR or control antibody, Western blotting with anti-KDM4B or anti-KDM4A.

No constants are given. Whether binding was seen depends on the method and setting. Binding seen in cells or lysates may run through a third protein. Some binding calls cover weakened binding; strength is not graded here.

B1: KDM4A (protein, UniProt O75164 1-1064)
chain: MASESETLNPSARIMTFYPTMEEFRNFSRYIAYIESQGAHRAGLAKVVPPKEWKPRASYDDIDDLVIPAPIQQLVTGQSGLFTQYNIQKKAMTVREFRKIANSDKYCTPRYSEFEELERKYWKNLTFNPPIYGADVNGTLYEKHVDEWNIGRLRTILDLVEKESGITIEGVNTPYLYFGMWKTSFAWHTEDMDLYSINYLHFGEPKSWYSVPPEHGKRLERLAKGFFPGSAQSCEAFLRHKMTLISPLMLKKYGIPFDKVTQEAGEFMITFPYGYHAGFNHGFNCAESTNFATRRWIEYGKQAVLCSCRKDMVKISMDVFVRKFQPERYKLWKAGKDNTVIDHTLPTPEAAEFLKESELPPRAGNEEECPEEDMEGVEDGEEGDLKTSLAKHRIGTKRHRVCLEIPQEVSQSELFPKEDLSSEQYEMTECPAALAPVRPTHSSVRQVEDGLTFPDYSDSTEVKFEELKNVKLEEEDEEEEQAAAALDLSVNPASVGGRLVFSGSKKKSSSSLGSGSSRDSISSDSETSEPLSCRAQGQTGVLTVHSYAKGDGRVTVGEPCTRKKGSAARSFSERELAEVADEYMFSLEENKKSKGRRQPLSKLPRHHPLVLQECVSDDETSEQLTPEEEAEETEAWAKPLSQLWQNRPPNFEAEKEFNETMAQQAPHCAVCMIFQTYHQVEFGGFNQNCGNASDLAPQKQRTKPLIPEMCFTSTGCSTDINLSTPYLEEDGTSILVSCKKCSVRVHASCYGVPPAKASEDWMCSRCSANALEEDCCLCSLRGGALQRANDDRWVHVSCAVAILEARFVNIAERSPVDVSKIPLPRFKLKCIFCKKRRKRTAGCCVQCSHGRCPTAFHVSCAQAAGVMMQPDDWPFVVFITCFRHKIPNLERAKGALQSITAGQKVISKHKNGRFYQCEVVRLTTETFYEVNFDDGSFSDNLYPEDIVSQDCLQFGPPAEGEVVQVRWTDGQVYGAKFVASHPIQMYQVEFEDGSQLVVKRDDVYTLDEELPKRVKSRLSVASDMRFNEIFTEKEVKQEKKRQRVINSRYREDYIEPALYRAIME
With B1, the binding entry was “binds”.
